PubChem BioAssay AID1259424 – University of Nebraska Medical Center – 2018

- Aim: 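Find knockdowns that reproduce the expression shifts seen after KSR1 loss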 (primary screen)
- Cell system: human HCT116 colon cancer cells
- Reagents: siRNA pool against human genes, 50 nM
- Read-out: 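Log2 levels of six mRNAs (branched-DNA multiplex), adjusted by two reference genes and the non-targeting median, then scored against the average KSR1 knockdown pattern as Pearson r and euclidean distance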
- Scale: mean correlation with KSR1 profile: higher = expression change more like KSR1 knockdown; mean distance from KSR1 profile: higher = expression change less like KSR1 knockdown
Here is one part, drawn at random, of about 14,000 reagents tested. 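Higher correlation or smaller distance means closer resemblance to KSR1 loss; control wells, including KSR1 knockdowns, recur on many plates.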 Further read-outs or replicates are left out here. Not stated in the record: the time to read-out.

CDH12 (cadherin 12) gave mean correlation with KSR1 profile 0.034; mean distance from KSR1 profile 1.89.
PRPF38A (pre-mRNA processing factor 38A) scored mean correlation with KSR1 profile 0.683; mean distance from KSR1 profile 4.08.
For C1S (complement C1s) the deposit lists mean correlation with KSR1 profile -0.415; mean distance from KSR1 profile 1.89.
With knock-down of CLIP3 (CAP-Gly domain containing linker protein 3), the screen gave mean correlation with KSR1 profile -0.889; mean distance from KSR1 profile 2.26.
Knock-down of MANBA (mannosidase beta) resulted in: mean correlation with KSR1 profile 0.407; mean distance from KSR1 profile 2.96.
TAC1 (tachykinin precursor 1) showed mean correlation with KSR1 profile 0.344; mean distance from KSR1 profile 0.855.
After knock-down of EZH2 (enhancer of zeste 2 polycomb repressive complex 2 subunit), the screen gave mean correlation with KSR1 profile -0.372; mean distance from KSR1 profile 2.81.
ARF3 (ARF GTPase 3) gave mean correlation with KSR1 profile -0.254; mean distance from KSR1 profile 3.89.

Sorted by “mean correlation with KSR1 profile” (lowest first): 2 of the entries above.
CLIP3 (CAP-Gly domain containing linker protein 3) | mean correlation with KSR1 profile: -0.889; mean distance from KSR1 profile: 2.26
MANBA (mannosidase beta) | mean correlation with KSR1 profile: 0.407; mean distance from KSR1 profile: 2.96

Continued:
After knock-down of RASSF1 (Ras association domain family member 1), the screen gave mean correlation with KSR1 profile 0.344; mean distance from KSR1 profile 2.4.
For GLRX3 (glutaredoxin 3), the entry reads mean correlation with KSR1 profile -0.328; mean distance from KSR1 profile 1.99.
Knock-down of CRIM1 (cysteine rich transmembrane BMP regulator 1) gave: mean correlation with KSR1 profile -0.317; mean distance from KSR1 profile 1.31.
GJB4 (gap junction protein beta 4) showed mean correlation with KSR1 profile 0.689; mean distance from KSR1 profile 1.55.
